Results from patent US20030180823A1, “Individualization of therapy with antihistamines” (Xanthus Life Sciences, Inc., priority 2001, published 2003).

System: 1X-Ab
Test: Competitive antigen ELISA, cross-reactivity of 1X-Ab
Format: binding, rabbit
Details: for [1X] × 10^6 determined by ELISA: fixed 1X concentration of 3 × 10^−6 M; for apparent increase of 1X concentration: fixed 1X 3×10^−6 M

## Cn1c(=O)[nH]c2[nH]c(=O)[nH]c2c1=O [1-Methyluric acid]
1U:1X ratio 0.50
  [1X] × 10^6 determined by ELISA: 2.75 × 10^6 (M)
1U:1X ratio 1.00
  [1X] × 10^6 determined by ELISA: 3.25 × 10^6 (M)
1U:1X ratio 1.50
  [1X] × 10^6 determined by ELISA: 3.25 × 10^6 (M)
1U:1X ratio 2.00
  [1X] × 10^6 determined by ELISA: 3.60 × 10^6 (M)
1U:1X ratio 2.50
  [1X] × 10^6 determined by ELISA: 3.65 × 10^6 (M)
1U:1X ratio 3.00
  [1X] × 10^6 determined by ELISA: 3.95 × 10^6 (M)
1U:1X ratio 4.00
  [1X] × 10^6 determined by ELISA: 4.20 × 10^6 (M)
1U:1X ratio 5.00
  [1X] × 10^6 determined by ELISA: 4.30 × 10^6 (M)
1U:1X ratio 6.00
  [1X] × 10^6 determined by ELISA: 4.50 × 10^6 (M)
1U:1X ratio 8.00
  [1X] × 10^6 determined by ELISA: 4.30 × 10^6 (M)
1U:1X ratio of 2.5
  apparent increase of 1X concentration: 22%
1U:1X ratio of 3.0
  apparent increase of 1X concentration: 32%
